Assay [1] has as its target T1, NF-κB1 p50 (mouse), P25799.
T1 chain: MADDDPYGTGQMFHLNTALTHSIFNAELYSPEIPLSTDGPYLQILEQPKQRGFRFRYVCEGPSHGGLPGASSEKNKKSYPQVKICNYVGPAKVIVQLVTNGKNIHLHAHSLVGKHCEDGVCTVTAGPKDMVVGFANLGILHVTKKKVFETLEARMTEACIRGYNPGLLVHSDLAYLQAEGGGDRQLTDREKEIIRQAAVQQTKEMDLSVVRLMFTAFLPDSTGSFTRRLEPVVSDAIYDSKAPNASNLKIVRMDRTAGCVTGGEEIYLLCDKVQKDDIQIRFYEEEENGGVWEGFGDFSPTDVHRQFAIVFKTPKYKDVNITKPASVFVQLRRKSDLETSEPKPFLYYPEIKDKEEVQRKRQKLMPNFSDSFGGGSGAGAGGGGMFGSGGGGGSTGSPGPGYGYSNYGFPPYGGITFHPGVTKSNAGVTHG
As to the kind of experiment: gel mobility shift assay of mammary gland whole cell extracts; composition of the NF-κB complexes. Particulars: remark: other sources report otherwise.

In assay [2] the target is T1, NF-κB1 p50 (mouse), P25799. In words: EMSA of nuclear extracts of RANKL-stimulated primary wt mammary epithelial cells. Particulars: remark: other sources report otherwise. (A gel shift assay detects complexes by their altered migration in electrophoresis.)

No constants are given. Whether binding was seen depends on the method and setting. Some binding calls cover weakened binding; strength is not graded here.

B1: RelA (p65), Q04207 1-549 (protein, mouse, UniProt Q04207 1-549, looked up)
chain: MDDLFPLIFPSEPAQASGPYVEIIEQPKQRGMRFRYKCEGRSAGSIPGERSTDTTKTHPTIKINGYTGPGTVRISLVTKDPPHRPHPHELVGKDCRDGYYEADLCPDRSIHSFQNLGIQCVKKRDLEQAISQRIQTNNNPFHVPIEEQRGDYDLNAVRLCFQVTVRDPAGRPLLLTPVLSHPIFDNRAPNTAELKICRVNRNSGSCLGGDEIFLLCDKVQKEDIEVYFTGPGWEARGSFSQADVHRQVAIVFRTPPYADPSLQAPVRVSMQLRRPSDRELSEPMEFQYLPDTDDRHRIEEKRKRTYETFKSIMKKSPFNGPTEPRPPTRRIAVPTRNSTSVPKPAPQPYTFPASLSTINFDEFSPMLLPSGQISNQALALAPSSAPVLAQTMVPSSAMVPLAQPPAPAPVLTPGPPQSLSAPVPKSTQAGEGTLSEALLHLQFDADEDLGALLGNSTDPGVFTDLASVDNSEFQQLLNQGVSMSHSTAEPMLMEYPEAITRLVTGSQRPPDPAPTPLGTSGLPNGLSGDEDFSSIADMDFSALLSQISS
Take B1: the binding result in assay [1] and in assay [2] was “binds” throughout.

For the origin of these results see US20050013818A1.
